From article PMC1794554
For at least one entry, the source does not settle the construct or the ends of the probe. The comparison behind a weaker result is the experiment's own reference, which may not be listed here.

Sequences of proteins named here, by UniProt entry; tags and fusion partners are left off.
UniProt P03372, whole entry: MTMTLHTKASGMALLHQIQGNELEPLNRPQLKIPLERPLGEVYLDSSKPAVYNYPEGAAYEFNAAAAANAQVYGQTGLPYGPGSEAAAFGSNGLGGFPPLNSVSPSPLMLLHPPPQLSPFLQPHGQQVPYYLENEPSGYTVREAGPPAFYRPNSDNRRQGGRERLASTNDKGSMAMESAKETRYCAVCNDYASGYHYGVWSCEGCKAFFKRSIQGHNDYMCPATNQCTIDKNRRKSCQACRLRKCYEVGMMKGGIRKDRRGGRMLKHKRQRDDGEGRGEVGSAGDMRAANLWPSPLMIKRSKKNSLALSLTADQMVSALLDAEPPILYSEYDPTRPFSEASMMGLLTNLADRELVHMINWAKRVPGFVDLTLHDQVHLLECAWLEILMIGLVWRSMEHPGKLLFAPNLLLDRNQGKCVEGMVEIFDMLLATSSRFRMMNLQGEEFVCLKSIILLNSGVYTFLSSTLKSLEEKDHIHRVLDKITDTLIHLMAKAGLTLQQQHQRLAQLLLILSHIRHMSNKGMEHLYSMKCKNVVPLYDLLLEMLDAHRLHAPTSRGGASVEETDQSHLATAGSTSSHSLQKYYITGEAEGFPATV

Target: estrogen receptor alpha (ERα), purified (UniProt P03372)
Assay: SPR
Conditions: SPR: 40 mM HEPES-KOH pH 7.4, 10 mM MgCl2, 200 mM KCl, 0.2% Triton X-100, 2 mM DTT, room temperature, ERα 58-708 nM (relative binding averaged over concentrations), label: 5'-biotin on the ERE strand

## TGTGGCAACTGGTTCATTCTGATCTAGAAGCAAC (double strand) [mutant 2 (half-sites)]
Significantly reduced
  binding result: binds more weakly

## TGTGGCAATTGGGTCATTCTGACCTAAAAGCAAC (double strand) [mutant 3 (conserved G and symmetrical C)]
Further diminished versus mutant 1
  binding result: binds more weakly
